Results on three sequences are retold here after PMC8442999.

The exact form of at least one protein or probe is not confirmed. For some of these results: Negatives hold for the conditions tested. For some of these results: Where a protein sequence is shown, tags need not be part of it.

For one data set, the target named is MBP (UniProt P0AEX9). Nature of the data set: EMSA. To be noted: MBP only control; EMSA 10 ul: 1 ul binding buffer (composition not given), 0.5 ul poly-dIdC, 0.5 ul glycerol, 0.5 ul 1 M KCl (about 50 mM), 400 ng protein, 4 C 20 min; pH not stated; recombinant protein; label: 5' biotin. In general terms: In EMSA bound probe runs differently from free probe, usually more slowly.

In the next data set the target is T1, MBP-TaWRKY13-A (UniProt W5DRW6).
T1 sequence (looked up, limits assumed): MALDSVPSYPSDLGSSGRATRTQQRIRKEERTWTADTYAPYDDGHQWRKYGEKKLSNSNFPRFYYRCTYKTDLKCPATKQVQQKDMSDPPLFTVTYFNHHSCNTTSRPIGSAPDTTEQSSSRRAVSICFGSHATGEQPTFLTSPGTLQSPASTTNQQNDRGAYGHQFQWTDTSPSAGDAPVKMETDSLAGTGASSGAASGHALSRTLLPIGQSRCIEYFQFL
The data set is described as follows: EMSA. To be noted: poly-dIdC, competed by 100x and 200x unlabeled probe; EMSA 10 ul: 1 ul binding buffer (composition not given), 0.5 ul poly-dIdC, 0.5 ul glycerol, 0.5 ul 1 M KCl (about 50 mM), 400 ng protein, 4 C 20 min; pH not stated; recombinant protein; label: 5' biotin.

Consider “TCACGGTCAAACACATTATCCTGTCCGAAAAGTGAAAACTAACACAAAACGTCACCGTTTTTCCTTGACTCAG (double strand) [Probe1 AtLOX6 promoter]”, for which the binding result with MBP was “no binding”; in the data set with MBP-TaWRKY13-A it was “binds”.
As for “CCGTCATGGACGCGGGCTGTTGGTCAACGCACGAGAGGAGGCATAAGGAC (double strand) [Probe3 TaLOX6 promoter]”, the binding result with MBP-TaWRKY13-A is listed as “binds”.
“CTCTTCCCGGCCAGCTGCTTTGACCCATTTCGTGTCCGGCGATCTTAACC (double strand) [Probe2 TaLOX6 promoter]”: the binding result with MBP-TaWRKY13-A is “binds”.
